Measured values reported in publication PMC11261967, “The retrotransposon-derived capsid genes PNMA1 and PNMA4 maintain reproductive capacity” (Research Square, 2024).
These are yes or no findings as the source states them, for the method shown. Some results given as binding are weak or reduced against the parent protein; the word gives no strength. Tags and fused reporters may be left off the sequences shown.

Experiments:
Test in all cases: sedimentation through a sucrose cushion; culture medium of transfected HEK293T cells, filtered (0.45 um), concentrated over a 100 kD MWCO filter, layered on a sucrose cushion, 38,000 rpm, 3 hr, 4 C; fractions and pellet immunoblotted (anti-V5)
[1] = target: 3V5-tagged human PNMA1 (human) (UniProt Q8ND90)
[2] = target: 3V5-tagged human PNMA4 (human) (UniProt Q96BY2)
[3] = target: 3V5-tagged human ARC (human) (UniProt Q7LC44)

B1: 3V5-tagged human PNMA1 (protein, UniProt Q8ND90 1-353)
chain: MAMTLLEDWCRGMDVNSQRALLVWGIPVNCDEAEIEETLQAAMPQVSYRMLGRMFWREENAKAALLELTGAVDYAAIPREMPGKGGVWKVLFKPPTSDAEFLERLHLFLAREGWTVQDVARVLGFQNPTPTPGPEMPAEMLNYILDNVIQPLVESIWYKRLTLFSGRDIPGPGEETFDPWLEHTNEVLEEWQVSDVEKRRRLMESLRGPAADVIRILKSNNPAITTAECLKALEQVFGSVESSRDAQIKFLNTYQNPGEKLSAYVIRLEPLLQKVVEKGAIDKDNVNQARLEQVIAGANHSGAIRRQLWLTGAGEGPAPNLFQLLVQIREEEAKEEEEEAEATLLQLGLEGHF
For B1, which binding [1] is on record?
The binding was “binds”.

B2: 3V5-tagged human PNMA4 (protein, UniProt Q96BY2 1-351)
chain: MTLRLLEDWCRGMDMNPRKALLIAGISQSCSVAEIEEALQAGLAPLGEYRLLGRMFRRDENRKVALVGLTAETSHALVPKEIPGKGGIWRVIFKPPDPDNTFLSRLNEFLAGEGMTVGELSRALGHENGSLDPEQGMIPEMWAPMLAQALEALQPALQCLKYKKLRVFSGRESPEPGEEEFGRWMFHTTQMIKAWQVPDVEKRRRLLESLRGPALDVIRVLKINNPLITVDECLQALEEVFGVTDNPRELQVKYLTTYQKDEEKLSAYVLRLEPLLQKLVQRGAIERDAVNQARLDQVIAGAVHKTIRRELNLPEDGPAPGFLQLLVLIKDYEAAEEEEALLQAILEGNFT
With B2 as the binder, how does the binding [2] read?
Its binding is “binds”.

B3: 3V5-tagged human ARC (protein, UniProt Q7LC44 1-396)
chain: MELDHRTSGGLHAYPGPRGGQVAKPNVILQIGKCRAEMLEHVRRTHRHLLAEVSKQVERELKGLHRSVGKLESNLDGYVPTSDSQRWKKSIKACLCRCQETIANLERWVKREMHVWREVFYRLERWADRLESTGGKYPVGSESARHTVSVGVGGPESYCHEADGYDYTVSPYAITPPPAAGELPGQEPAEAQQYQPWVPGEDGQPSPGVDTQIFEDPREFLSHLEEYLRQVGGSEEYWLSQIQNHMNGPAKKWWEFKQGSVKNWVEFKKEFLQYSEGTLSREAIQRELDLPQKQGEPLDQFLWRKRDLYQTLYVDADEEEIIQYVVGTLQPKLKRFLRHPLPKTLEQLIQRGMEVQDDLEQAAEPAGPHLPVEDEAETLTPAPNSESVASDRTQPE
With B3 as the binder, how does the binding [3] read?
The binding was “binds”.
